Source: patent US10039795B2, “Codon optimized recombinant phage and methods of using same” (priority 2014, dated 2018)
For at least one compound, name, drawing or mass did not settle the structure.

Tested on: Listeria
Assay type: cell-based
Conditions: component of aqueous solution (infection buffer)

Compound: CN(C)[C@@H]1C(O)=C(C(N)=O)C(=O)[C@@]2(O)C(O)=C3C(=O)c4c(O)cccc4[C@@](C)(O)[C@H]3C[C@@H]12 [Tetracycline, reference compound]
- Effect on Listeria Detection: positive
